Experimental data from publication PMC7442491.
Results are given in words; binding and its absence hold for the method and conditions named. Binding seen in cells or lysates may run through a third protein. Here binding means that the protein was enriched with, or labelled near, the bait; the list need not be complete. Tags and fused reporters may be left off the sequences shown.

The chains behind the UniProt entries cited, without tags or fusion partners. Residues count along the entry.
UniProt O75251, residues 39-213: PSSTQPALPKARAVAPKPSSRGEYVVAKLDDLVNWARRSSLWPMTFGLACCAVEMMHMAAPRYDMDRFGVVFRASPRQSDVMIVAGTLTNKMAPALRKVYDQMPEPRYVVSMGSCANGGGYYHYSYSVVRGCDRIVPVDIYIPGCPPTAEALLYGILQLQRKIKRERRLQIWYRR

Biological target: T1, human ALKBH7 C-terminal 3xFLAG tag fusion protein (human) (UniProt Q9BT30)
T1 sequence: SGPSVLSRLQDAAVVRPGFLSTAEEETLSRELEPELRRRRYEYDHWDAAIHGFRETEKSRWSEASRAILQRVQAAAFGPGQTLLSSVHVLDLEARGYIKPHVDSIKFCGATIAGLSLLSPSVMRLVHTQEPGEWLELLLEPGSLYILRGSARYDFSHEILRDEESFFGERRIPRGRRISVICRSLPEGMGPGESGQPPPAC
Experiment: affinity purification with mass spectrometry; ALKBH7-3xFLAG from transfected HEK 293T whole-cell extract held on FLAG M2 antibody resin, 2 hr at 4°C, 150 mM NaCl, 20 mM HEPES, 0.1% NP-40, pH 7.9; eluted with 3xFLAG peptide; SDS-PAGE bands cut and identified by LC-MS/MS; baseline or MMS-treated …; proteins of the vector-only control eliminated

binding: binds
Substance: NDUFS7 subunit of respiratory complex I (from UniProt O75251 39-213)
